Measured values taken from PubChem BioAssay AID1347423 (Functional Genomics Laboratory (NCATS/FGL), 2020).
In all, about 52,000 sequences went through this assay and about 210 (0.4%) were called active.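 Rule for the calls: active = gene whose silencing raises cell survival under the drug, median off-target-corrected z-score across its silencing RNAs 2 or more; inactive = the rest.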 The list shows a part of the results.

assay: Resistance to Poly (ADP-Ribose) Polymerase inhibitor: Gene Identification via Genome-wide siRNA Screen; conditions: mouse BRCA2 R2336H ES cells, olaparib, CellTiter-Glo viability; active compounds read high
Method in brief: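 Mouse BRCA2 R2336H ES cells were reverse-transfected with siRNA (20 nM final), treated at 48 h with 500 nM olaparib, and read by CellTiter-Glo after 72 h. Scores: MAD-based z per siRNA, median per gene, seed off-target correction.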

Sequence | z-score
CCUCGAGUCACCAACAUCGTT against Simp-pending | inactive: 0.524
CCUAAAAUCCUAGACCUUUTT against Pank1 | inactive: -0.566
GCACUAGGCGAGUUGUCAUTT against Rnase4 | inactive: 0.987
GGCAAAUUAUUAGUACAGUTT against Gabpa | inactive: -0.955
CGAAGAUCUUAUCAGUAUATT against Cdh7 | inactive: 0.43
UUGGAAGUGGCCAUGUAGGTT against LOC434459 | inactive: -1.15
GGAAGUGGAAUCCUACAAGTT against Celsr2 | inactive: -0.254
GCCCUUACCGAAGAAUUAATT against 2900060P06Rik | inactive: 0.451
CCUACAACUAUAAAAGAUGTT against Sp3 | inactive: -0.515
GCCACUCACAUUAAAUUACTT against Mthfd1 | inactive: -0.481
GCUAAUAACUUUUCAGUGATT against Olfr381 | inactive: 1.01
GGACGUGAGACUUCUUCAGTT against Prr3 | inactive: 1.06
GGCAACUUAGGAGUUAGACTT against 2610528A17Rik | inactive: 0.957
CCUUUAAUACACUCUUCAATT against Cyp2a12 | inactive: 0.607
GGCCAGUGAUGCUGUAGUUTT against Sema6c | inactive: -2.66
CCACUUUCAACUUUCCGCATT against Fgd5 | inactive: 0.489
CCUGCAAUACCUACUACCATT against Prss32 | inactive: -0.173
GGCAGUAGACACAAACAGATT against Plxdc2 | inactive: 0.571
GGAUCAGAACUCGUUCCCGTT against 1500011J06Rik | inactive: -0.161
GGUGUCAGAGUUAAGACAATT against Myocd | inactive: 0.668
GCAGCAGUUAAACAACCUUTT against 4933434L15Rik | inactive: -0.538
GCUCUAGCAACUAAGCGCATT against LOC382109 | inactive: -0.0899
GCUUUGUUUGAAAAUGCGATT against BC002230 | inactive: 1.31
GGUCAAAGGAAAAAAAUGGTT against Zfp30 | inactive: 0.618
GCCCACAUUUGUAUUACUUTT against 9530020D24Rik | inactive: -1.7
CCUCCUUUAAGGAAAACCCTT against Alb1 | inactive: 0.789
GGCACUCGACAGAACAACUTT against Scamp3 | inactive: -0.981

Sequence | z-score
GGACCAGAUAACUGCCAAATT against Kif5c | inactive: -1.26
GACAAGACAAGUUUUGGUATT against Elmo1 | inactive: -0.497
GGUUUUUACAAUCAUGAUGTT against Fert2 | inactive: 0.665
GGAAAUUAAACAGAAACAGTT against Ube2j2 | inactive: -0.428
GCCUAUCGUCCAGAUUAUCTT against Senp1 | inactive: -0.394
GGACAAAUUGUAUGGCGAATT against Nedl2 | inactive: 0.434
GCUUCGACACUUUAUUUCUTT against Cnp1 | inactive: 1.82
GGCUCAAGGUUUUCUCUACTT against Olfr710 | inactive: 0.232
GGUACCUUGCCUGACAAACTT against Ids | inactive: -0.214
GGACCAUAUGGACACAAAGTT against Col10a1 | inactive: 0.609
CGGUCCAGGAAGAAUGUUUTT against Bckdhb | inactive: -1.25
GGAAUACCUCCACCUAUGGTT against Tcerg1 | inactive: 0.715
GGAACAGAAGGGUAAAGGGTT against Gkn1 | inactive: -1.51
GCAACAGAAGAUAACUCAATT against ORF28 | inactive: 0.108
GGAUAAGACUCGAUGGAUGTT against D030051N19Rik | inactive: 0.317
GCUCCUUUGGUUCAACAUCTT against Olfr635 | inactive: -0.403
GGCAGCAGCUACUCCUAUATT against Krt2-6a | inactive: -0.00281
GGCUGGGAAUUUUACAGUATT against Gpr3 | inactive: -0.769
GGCAGCAUAGACUCUGACATT against Rag2 | inactive: -1.34
GGGAAUGAAGAACUUCCUCTT against 4432404J10Rik | inactive: -0.716
GGAUCGAAGUAGAAUGUAUTT against Cpeb2 | inactive: -2.61
GCGACUUAGGGAAAGAUACTT against 1700020C11Rik | inactive: 0.796
GAAUGUUCCUCAUGUCGUCTT against Olfr64 | inactive: -0.461
GCUGCUUACUAUCAGAAAATT against Stx12 | inactive: 0.349
GCCUCAAAACUUCUUGUUCTT against Mxd3 | inactive: 0.892
GGAGAUUCAGAUCAAAGAGTT against Scyl1 | inactive: 0.187
GCCUAUGCCAAUUUGUGCGTT against Paqr6 | inactive: -0.19

Sequence | z-score
GGUGUCGCUUUUUUAUCAATT against Ikbkap | inactive: 0.572
GGCCACUUGUCUCAUUGUGTT against 2900036K24Rik | inactive: -1.09
CGCAUUUCGAAUAAAGACATT against BC024814 | inactive: 0.0213
GCUGGAAAGCUCACAGUUATT against Faah | inactive: 0.647
CCUGUAUGGAGUAAUGGAATT against Eif4ebp3 | inactive: 0.453
GCAUGAUCGUGUUUGUUUATT against Srpk2 | inactive: 1.22
GGGCUCAUUGCUAAAACACTT against Sgcg | inactive: -0.391
GGUCGUUAUCACUCUCUAUTT against Pkd1l3 | inactive: 0.682
GGAGAUUGACACCAACACCTT against Clic5 | inactive: 0.894
GGUGAUGCAAGAAGAAAUUTT against Aldh3a2 | inactive: 1.55
GGUUCACAGAGGCUAAGGUTT against Dph2l1 | inactive: 1.23
GGACUUGUCAUUAUUGUCCTT against Olfr397 | inactive: 1.87
GCUCUUGGGUUACUGGGUUTT against Olfr784 | inactive: -1.63
GGACAGUAUGAAUUUGAAUTT against Lcp1 | inactive: -0.393
GCUUGAGUCGUCAAAACUGTT against Mars | inactive: -2.56
GCUUGAUCAUGCAAUCUAUTT against C330023M02Rik | inactive: -0.739
CCCAAUAGGAGCUCAUCAUTT against Nr4a3 | inactive: 2.68
GGAAGCAGUAAGAAAUCAGTT against Clpx | inactive: 1.52
GGAAACGGUGCGACUUCAATT against 1200015N20Rik | inactive: -2.73
GGACAAUGAUUACGACCACTT against Cacng4 | inactive: 0.29
CGACCGUUGUUAUGGGCAATT against Pla2g5 | inactive: -0.335
GUUACUUGAAAAUUGGACATT against V1rd4 | inactive: -0.945
GGUGCUAAGCAUGAAGCCUTT against Stk16 | inactive: 0.449
GCAUAGAGGACUACAACGATT against Optc | inactive: 0.177
GCUGUUUGAGGUCAUUCAUTT against AK122209 | inactive: -0.363
GGAGUGAAGGGUCAUCCAGTT against Col9a2 | inactive: -0.727
GGGACAAGACUGUAUCUUUTT against Fgf4 | inactive: 1.67

Sequence | z-score
GCAUUCAGAAAGUGUAUAATT against Tm4sf8 | inactive: -1.36
CGAAAGGAAACAGUCCAGATT against 2900016D05Rik | inactive: -0.217
GCCCAAUAACCAAAUGCCATT against Tox | inactive: 0.845
CCUCAUUUCAUUGUCUAGUTT against Ankrd25 | inactive: -0.345
GGCUGUCGAGUAUAAAUCUTT against Stfa3 | inactive: -0.0514
GGUUACAUCAUCUUAACACTT against AI449441 | inactive: 0.883
GGACGAAUGUCACAAUUUUTT against Sema4f | inactive: 2.13
GCCAUCAUCCAGCUAUGACTT against Olfr360 | inactive: -1.32
GGGUUAAUCCCUAUCUCUUTT against Tcfe3 | inactive: 1.37
GGAAGCCUUAUAUCGGGCGTT against A430041B07 | inactive: 0.138
GGAUACGUUACUCCAGUCATT against Ctsk | inactive: -1.63
GGGACAGAAAGGAAAGACUTT against Ndufb4 | inactive: -2.03
GGAACAGUCUGAAAUACACTT against Usp18 | active: 0.039
GGAAAUGAAGCAUCUGUAUTT against Txnip | inactive: -1.32
GGUGCUGCUUUAUUCCUGGTT against Dhcr7 | inactive: 0.469
GGAAGACCAAGAGGAAAACTT against 4930553M18Rik | inactive: 1.03
GCUCCAUACUCCGGAUCAGTT against Ftl2 | inactive: -0.974
GGAUAUUGAUGCAUACUUUTT against AF233884 | inactive: -2.25
GAUCAAAGAUCAUGUGGCCTT against Fau | inactive: -2.89
GCUCCGUCAGACAAAGAAGTT against Apex1 | inactive: -1.04
GGUAGUUCAUCUCAGGCCUTT against Ly64 | inactive: 0.0122
GGCUUCUCUGCUCUAGGCUTT against 1700023M09Rik | inactive: 0.768
GGGCCAUUUUAGGUCCUUUTT against Rbm7 | inactive: 0.375
GGAAUGAGAAGUUCUAUGATT against Chrna7 | inactive: 1.49
